# Where a name gives a salt, the structure may show the parent alone. This is one part of the list. Most entries show no effect beyond the scatter of the controls.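 Using flow cytometry, the assay measures the median γH2AX antibody signal in S-phase Reh cells (a human leukemia line). Each score is the number of standard deviations from the median difference of paired plate sets. Candidate hits scored above 2.5; compounds scoring below -2 lowered MK1775-induced damage.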
# System: Reh
# Experiment: Z' of S-phase gammaH2AX difference (drug + MK1775 minus drug alone) (Z-score); higher = stronger synergistic S-phase DNA damage with MK1775
# Conditions: MK1775 concentration 400 nM; first compound 10 µM; 4 h
row,Structure (SMILES),Z' of S-phase gammaH2AX difference (Z-score)
1,CCN1CCc2nc(N)oc2CC1 [B-HT 933 dihydrochloride] + C=CCn1c(=O)c2cnc(Nc3ccc(N4CCN(C)CC4)cc3)nc2n1-c1cccc(C(C)(C)O)n1 [MK1775],inactive: 0.458
2,C[N+](C)(C)CCOC(=O)CCC(=O)OCC[N+](C)(C)C [Succinylcholine chloride] + C=CCn1c(=O)c2cnc(Nc3ccc(N4CCN(C)CC4)cc3)nc2n1-c1cccc(C(C)(C)O)n1 [MK1775],inactive: -0.103
3,CN(Cc1cnc2nc(N)nc(N)c2n1)c1ccc(C(=O)N[C@@H](CCC(=O)O)C(=O)O)cc1 [Methotrexate] + C=CCn1c(=O)c2cnc(Nc3ccc(N4CCN(C)CC4)cc3)nc2n1-c1cccc(C(C)(C)O)n1 [MK1775],active: 5.98
4,CN(Cc1cnc2nc(N)nc(N)c2n1)c1ccc(C(=O)N[C@@H](CCC(=O)O)C(=O)O)cc1 [(-)Amethopterin] + C=CCn1c(=O)c2cnc(Nc3ccc(N4CCN(C)CC4)cc3)nc2n1-c1cccc(C(C)(C)O)n1 [MK1775],active: 3.07
5,CN(Cc1cnc2nc(N)nc(N)c2n1)c1ccc(C(=O)N[C@@H](CCC(=O)O)C(=O)O)cc1 [Abitrexate (Methotrexate)] + C=CCn1c(=O)c2cnc(Nc3ccc(N4CCN(C)CC4)cc3)nc2n1-c1cccc(C(C)(C)O)n1 [MK1775],inactive: 1.99
6,"C=CCn1c(=O)c2c(nc(-c3ccc(S(=O)(=O)O)cc3)n2C)n(C)c1=O [1-Allyl-3,7-dimethyl-8-p-sulfophenylxanthine] + C=CCn1c(=O)c2cnc(Nc3ccc(N4CCN(C)CC4)cc3)nc2n1-c1cccc(C(C)(C)O)n1 [MK1775]",inactive: 0.0935
7,COc1cc2c(CCNC(C)=O)c[nH]c2cc1Cl [6-Chloromelatonin] + C=CCn1c(=O)c2cnc(Nc3ccc(N4CCN(C)CC4)cc3)nc2n1-c1cccc(C(C)(C)O)n1 [MK1775],inactive: 0.264
8,Cc1ccc(S(=O)(=O)NC(=O)NN2CCCCCC2)cc1 [Tolazamide] + C=CCn1c(=O)c2cnc(Nc3ccc(N4CCN(C)CC4)cc3)nc2n1-c1cccc(C(C)(C)O)n1 [MK1775],inactive: -1.81
9,CC(C)c1ccc(Cn2ccc3c4c(N)nc(NC5CC5)nc4ccc32)cc1 + C=CCn1c(=O)c2cnc(Nc3ccc(N4CCN(C)CC4)cc3)nc2n1-c1cccc(C(C)(C)O)n1 [MK1775],inactive: -0.805
10,CCCCNc1c(C(=O)OCC)c(C)nc2c1cnn2CC [Tracazolate] + C=CCn1c(=O)c2cnc(Nc3ccc(N4CCN(C)CC4)cc3)nc2n1-c1cccc(C(C)(C)O)n1 [MK1775],inactive: 0.185
11,CCCCCCCc1ccc(CCc2cccc(O)c2C(=O)O)cc1 + C=CCn1c(=O)c2cnc(Nc3ccc(N4CCN(C)CC4)cc3)nc2n1-c1cccc(C(C)(C)O)n1 [MK1775],inactive: 0.301
12,CC(N)=NCCC[C@H](N)C(=O)O [L-N5-(1-Iminoethyl)ornithine hydrochloride] + C=CCn1c(=O)c2cnc(Nc3ccc(N4CCN(C)CC4)cc3)nc2n1-c1cccc(C(C)(C)O)n1 [MK1775],inactive: -0.668
13,CC[N+](CC)(CC)CC(=O)Nc1c(C)cccc1C [Lidocaine N-ethyl bromide quaternary salt] + C=CCn1c(=O)c2cnc(Nc3ccc(N4CCN(C)CC4)cc3)nc2n1-c1cccc(C(C)(C)O)n1 [MK1775],inactive: 0.296
14,COc1cc(-c2ccc(=O)[nH]n2)ccc1OC(F)F [Zardaverine] + C=CCn1c(=O)c2cnc(Nc3ccc(N4CCN(C)CC4)cc3)nc2n1-c1cccc(C(C)(C)O)n1 [MK1775],inactive: -0.00186
15,Cc1ccc([N+](=O)[O-])cc1S(=O)(=O)N(C)/N=C/c1cnc2ccc(Br)cn12 + C=CCn1c(=O)c2cnc(Nc3ccc(N4CCN(C)CC4)cc3)nc2n1-c1cccc(C(C)(C)O)n1 [MK1775],inactive: -1.25
16,O=C(Nc1cc(C(=O)Nc2ccc(S(=O)(=O)O)cc2S(=O)(=O)O)cc(C(=O)Nc2ccc(S(=O)(=O)O)cc2S(=O)(=O)O)c1)Nc1cc(C(=O)Nc2ccc(S(=O)(=O)O)cc2S(=O)(=O)O)cc(C(=O)Nc2ccc(S(=O)(=O)O)cc2S(=O)(=O)O)c1 [NF449 octasodium salt] + C=CCn1c(=O)c2cnc(Nc3ccc(N4CCN(C)CC4)cc3)nc2n1-c1cccc(C(C)(C)O)n1 [MK1775],inactive: 0.378
17,CC1=C(/C=C/C(C)=C/C=C/C(C)=C\C(=O)O)C(C)(C)CCC1 [13-cis-retinoic acid] + C=CCn1c(=O)c2cnc(Nc3ccc(N4CCN(C)CC4)cc3)nc2n1-c1cccc(C(C)(C)O)n1 [MK1775],inactive: 0.383
18,Nc1nc(OCc2ccccc2)c2nc[nH]c2n1 [O6-benzylguanine] + C=CCn1c(=O)c2cnc(Nc3ccc(N4CCN(C)CC4)cc3)nc2n1-c1cccc(C(C)(C)O)n1 [MK1775],inactive: 0.608
19,CSc1ccc2c(c1)N(CCC1CCCCN1C)c1ccccc1S2 (configuration not stated) [Thioridazine hydrochloride] + C=CCn1c(=O)c2cnc(Nc3ccc(N4CCN(C)CC4)cc3)nc2n1-c1cccc(C(C)(C)O)n1 [MK1775],inactive: -0.516
20,CC(C)(Sc1ccc(CCN(CCCCC2CCCCC2)C(=O)NC2CCCCC2)cc1)C(=O)O + C=CCn1c(=O)c2cnc(Nc3ccc(N4CCN(C)CC4)cc3)nc2n1-c1cccc(C(C)(C)O)n1 [MK1775],inactive: -0.644
21,NC1C=CC=C(C(=O)O)C1 (configuration not stated) [Gabaculine hydrochloride] + C=CCn1c(=O)c2cnc(Nc3ccc(N4CCN(C)CC4)cc3)nc2n1-c1cccc(C(C)(C)O)n1 [MK1775],inactive: 0.234
22,NCCNS(=O)(=O)c1cccc2cnccc12 [H-9 dihydrochloride] + C=CCn1c(=O)c2cnc(Nc3ccc(N4CCN(C)CC4)cc3)nc2n1-c1cccc(C(C)(C)O)n1 [MK1775],inactive: -1.02

# Shown with tabs: part of the list above
row	Structure (SMILES)	Z' of S-phase gammaH2AX difference (Z-score)
15	Cc1ccc([N+](=O)[O-])cc1S(=O)(=O)N(C)/N=C/c1cnc2ccc(Br)cn12 + C=CCn1c(=O)c2cnc(Nc3ccc(N4CCN(C)CC4)cc3)nc2n1-c1cccc(C(C)(C)O)n1 [MK1775]	inactive: -1.25
16	O=C(Nc1cc(C(=O)Nc2ccc(S(=O)(=O)O)cc2S(=O)(=O)O)cc(C(=O)Nc2ccc(S(=O)(=O)O)cc2S(=O)(=O)O)c1)Nc1cc(C(=O)Nc2ccc(S(=O)(=O)O)cc2S(=O)(=O)O)cc(C(=O)Nc2ccc(S(=O)(=O)O)cc2S(=O)(=O)O)c1 [NF449 octasodium salt] + C=CCn1c(=O)c2cnc(Nc3ccc(N4CCN(C)CC4)cc3)nc2n1-c1cccc(C(C)(C)O)n1 [MK1775]	inactive: 0.378
